Some peptides are written in HELM: one residue between dots, names in brackets for other building blocks, links after the first $.
Test: general procedure: Fmoc solid-phase peptide synthesis; Rink Amide Resin-ProTide (0.59 mmol/g)
Details: whole synthesis, Analytical HPLC, Waters XSelect Peptide CSH C18, 220 nm, TFA salt
[1] = one disulfide bridge, sequence written open

Substance	final HPLC purity [1]	further results
Mpa-Tyr-Phe-Gln-Asn-Cys-Pro-Lys(X)a-Gly [SEQ ID NO. 21]; X is Gly and a is 7	–	final HPLC purity (one disulfide bridge): 95%
Mpa-Tyr-Phe-Gln-Asn-Cys-Pro-Lys(X)a-Gly [SEQ ID NO. 22]; X is Gly and a is 8	–	final HPLC purity (one disulfide bridge): 90%
Mpa-Tyr-Phe-Gln-Asn-Cys-Pro-Lys(X)a-Gly-NH2; (X)a = (Gly)6	96%	–
Mpa-Tyr-Phe-Gln-Asn-Cys-Pro-Lys(X)a-Gly-NH2; (X)a = (Gly)9	93%	–
Mpa-Tyr-Phe-Hgn-Asn-Cys-Pro-Dap-Gly-NH2	86%	–
Mpa-Tyr-Phe-Hgn-Asn-Cys-Pro-Lys(X)-Gly-NH2; X = Gly	92%	–
Mpa-Tyr-Phe-Hgn-Asn-Cys-Pro-Lys(X)a-Gly-NH2; (X)a = (Gly)2	94%	–
Mpa-Tyr-Phe-Hgn-Asn-Cys-Pro-Lys(X)a-Gly-NH2; (X)a = (Gly)3	95%	–
Mpa-Tyr-Phe-Hgn-Asn-Cys-Pro-Lys(X)a-Gly-NH2; (X)a = (Gly)4	91%	–
Mpa-Tyr-Phe-Hgn-Asn-Cys-Pro-Lys(X)a-Gly-NH2; (X)a = (Gly)5	93%	–
Mpa-Tyr-Phe-Hgn-Asn-Cys-Pro-Lys(X)a-Gly-NH2; (X)a = (Gly)6	90%	–
Mpa-Tyr-Phe-Hgn-Asn-Cys-Pro-Lys(X)a-Gly-NH2; (X)a = (Gly)7	89%	–
Mpa-Tyr-Phe-Hgn-Asn-Cys-Pro-Lys(X)a-Gly-NH2; (X)a = (Gly)8	87%	–
Mpa-Tyr-Phe-Hgn-Asn-Cys-Pro-Lys(X)a-Gly-NH2; (X)a = (Gly)9	86%	–
PEPTIDE1{[Mpa].Y.F.[Hgn].N.C.P.K.G.[am]}|PEPTIDE2{[Ado12]}$PEPTIDE1,PEPTIDE1,1:R3-6:R3|PEPTIDE1,PEPTIDE2,8:R3-1:R2$$$V2.0	–	final HPLC purity: 91%
PEPTIDE1{[Mpa].Y.F.[Hgn].N.C.P.[dK].G.[am]}$PEPTIDE1,PEPTIDE1,1:R3-6:R3$$$V2.0	–	final HPLC purity: 91%
